In PubChem BioAssay AID1671190 (National Center for Advancing Translational Sciences (NCATS), 2021):
Where “and” joins values, the source holds several entries; their conditions need not be identical. Equal values may be shown once. Out of some 580,000 compounds screened, about 6,100 (1.1%) were called active. Inconclusive results, whose numbers are uncertain, are shown with a selection of clear calls. The call rests on the fitted dose curve; in most records, active means well fitted inhibition curve with a large enough effect; inconclusive means small, poorly fitted or top-dose-only effect, or another doubt; inactive means no such curve, though single readings can be large or run the other way. Potencies of inconclusive entries are doubtful fits and often do not repeat.

Amino acid sequences for entries named in this document (tags omitted). A change or cut given only in a name is not applied to a line headed by its entry.
UniProt P18054: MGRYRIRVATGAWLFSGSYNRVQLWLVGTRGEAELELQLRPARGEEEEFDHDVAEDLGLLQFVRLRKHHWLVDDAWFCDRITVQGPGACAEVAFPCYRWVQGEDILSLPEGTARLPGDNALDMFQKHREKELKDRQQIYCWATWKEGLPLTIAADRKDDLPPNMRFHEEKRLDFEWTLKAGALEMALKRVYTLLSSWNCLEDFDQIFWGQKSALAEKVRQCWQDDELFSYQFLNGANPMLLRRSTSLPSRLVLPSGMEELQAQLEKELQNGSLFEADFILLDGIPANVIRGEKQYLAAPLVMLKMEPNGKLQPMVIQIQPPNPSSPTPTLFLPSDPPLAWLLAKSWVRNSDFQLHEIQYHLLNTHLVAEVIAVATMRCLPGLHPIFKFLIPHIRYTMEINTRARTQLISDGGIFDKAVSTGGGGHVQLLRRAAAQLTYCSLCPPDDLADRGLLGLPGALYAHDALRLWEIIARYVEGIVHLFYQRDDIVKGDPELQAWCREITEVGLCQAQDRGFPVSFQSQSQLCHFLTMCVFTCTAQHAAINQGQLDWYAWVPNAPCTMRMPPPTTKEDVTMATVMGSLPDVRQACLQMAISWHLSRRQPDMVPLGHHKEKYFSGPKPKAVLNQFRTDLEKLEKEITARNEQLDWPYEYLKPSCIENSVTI

biological target: Polyunsaturated fatty acid lipoxygenase ALOX12 (Homo sapiens) (UniProt P18054); experiment: Primary qHTS assay for inhibitors of human arachidonate 12S-lipoxygenase (ALOX12): Round 2; conditions: purified 12hLO, xylenol orange hydroperoxide absorbance; activity change, negative = inhibition: at 108 µM (top of the series) unless noted
How it was run: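 Purified human 12hLO at 150 nM in 25 mM Hepes, 0.01% Triton X-100, pH 7.0, preincubated 15 min at room temperature with compound. Reaction started with 40 uM arachidonic acid, 30 min at room temperature. Hydroperoxide measured by Fe-xylenol orange, 573/405 nm absorbance ratio.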
On the % scale 0 is the no-effect control and ±100 the full control effect; potency means the concentration at half of the fitted maximal effect.

Row | SMILES | Potency | activity change, negative = inhibition
1 | O=C(O)C(Br)Cc1ccc(Cl)cc1Cl (configuration not stated) | inconclusive: 31.6 µM [inhibitor, partial curve, poor fit] | 
2 | CN1CCN(c2nc(-c3cccc(NS(C)(=O)=O)c3)nc3ccccc23)CC1 | inconclusive: 50.1 µM [inhibitor, partial curve, poor fit] | 
3 | O=C(CCCN1C(=O)/C(=C/c2cccc(Br)c2)SC1=S)NCCCN1CCOCC1 | inconclusive: 50.1 µM [inhibitor, partial curve, poor fit] | 
4 | Fc1cccc(Cl)c1CSc1ccc(-c2ccco2)nn1 |  | inconclusive: -35.2% [inhibitor]
5 | CC(=O)Nc1ccc(S(=O)(=O)Oc2cccc(/C=C3\SC(N)=NC3=O)c2)cc1 | inconclusive: 100 µM [inhibitor, partial curve, poor fit] | 
6 | CCOC(=O)c1cc2c(=O)n3cccc(C)c3nc2n(CC2CCCO2)c1=NC(C)=O (configuration not stated) | inconclusive: 100 µM [inhibitor, partial curve, poor fit] | 
7 | Cc1ccc(O)c(NC(=O)c2cc(-c3ccccc3O)no2)c1 |  | inactive: -21.8%
8 | Cc1cc(NC(=O)Nc2nnc(N(C)Cc3ccccc3)s2)ccc1Br | inconclusive: 39.8 µM [inhibitor, partial curve, poor fit] | 
9 | CN(C)c1ccc(CN2CCC(C(=O)NC(c3ccc(Cl)cc3)c3cnccn3)CC2)cc1 (configuration not stated) | inconclusive: 89.1 µM [inhibitor, single point] | 
10 | Cc1ccc(F)cc1S(=O)(=O)N1CCCC(Cn2c(C3CC3)nc3cccnc32)C1 (configuration not stated) |  | inactive: 9.03%
11 | Cc1[nH]c2ccccc2c1C(=O)C(=O)Nc1ccc(C(C)C)cc1 | inconclusive: 5.01 µM [inhibitor, full curve, poor fit] | 
12 | COc1ccc(N(C=O)C(C(=O)Nc2c(C)cccc2C)c2ccccc2)cc1 (configuration not stated) |  | inactive: 0%
13 | OC(c1ccccn1)c1c[nH]c2ccccc12 (configuration not stated) | inconclusive: 5.01 µM [inhibitor, full curve, poor fit] | 
14 | COc1ccc(-c2nnc(NC(=O)c3ccco3)s2)cc1 |  | inactive: -23.6%
15 | CCOc1ccccc1-c1nc(SCC(=O)O)n[nH]1 | inconclusive: 70.8 µM [inhibitor, partial curve, poor fit] | 
16 | CCOC(=O)c1cnc(-c2ccccc2)nc1Oc1ccc(Cl)c(Cl)c1 |  | inactive: 18.4%
17 | CC(Sc1nc2cc(S(=O)(=O)N3CCCCC3)ccc2o1)C(=O)Nc1cccc(Cl)c1 (configuration not stated) | inconclusive: 39.8 µM [inhibitor, partial curve, poor fit] | 
18 | COc1cc(NC(=O)c2ccco2)c(OC)cc1NC(=O)c1cc(OC)c(OC)c(OC)c1 |  | inactive: 3.67%
19 | Cc1cccc(NC(=O)CSc2ncnc3c2oc2ccccc23)c1 | inconclusive: 141 µM [inhibitor, single point] | 
20 | O=C(Cn1cnc2ccccc21)OCC(=O)N1CCc2ccccc2C1 | inconclusive: 56.2 µM [inhibitor, partial curve, poor fit] | 
21 | O=C(C(=O)N1CCCN(Cc2ccc(F)cc2)CC1)c1ccccc1 | inconclusive: 56.2 µM [inhibitor, full curve, poor fit] | 
22 | O=C(COc1ccccc1C(=O)NCC1CCCO1)Nc1ccc(Cl)cc1Cl (configuration not stated) |  | inactive: -15.4%
23 | Cc1nc(COc2ccc(C(=O)Nc3ccccc3N3CCOCC3)cc2)cs1 |  | inactive: 0%

Reprinted at random: 4 entries already listed
Row | SMILES | Potency | activity change, negative = inhibition
13 | OC(c1ccccn1)c1c[nH]c2ccccc12 (configuration not stated) | inconclusive: 5.01 µM [inhibitor, full curve, poor fit] | 
10 | Cc1ccc(F)cc1S(=O)(=O)N1CCCC(Cn2c(C3CC3)nc3cccnc32)C1 (configuration not stated) |  | inactive: 9.03%
9 | CN(C)c1ccc(CN2CCC(C(=O)NC(c3ccc(Cl)cc3)c3cnccn3)CC2)cc1 (configuration not stated) | inconclusive: 89.1 µM [inhibitor, single point] | 
11 | Cc1[nH]c2ccccc2c1C(=O)C(=O)Nc1ccc(C(C)C)cc1 | inconclusive: 5.01 µM [inhibitor, full curve, poor fit] | 

(cont.)

Row | SMILES | Potency | activity change, negative = inhibition
24 | O=C(C(c1ccccc1)c1ccccc1)N1CCN(Cc2ccco2)CC1 | inconclusive: 0.316 µM [inhibitor, full curve, poor fit] | 
25 | COc1ccc(C2c3[nH]c4ccccc4c3C[C@H]3C(=O)N(c4ccccc4C(=O)N4CCC[C@H]4C(=O)O)C(=O)N23)cc1 (some centres not stated) | inconclusive: 56.2 µM [inhibitor, partial curve, poor fit] | 
26 | CC(=O)C1=C(c2ccc(Cl)cc2)N(C(C)=O)n2c(nnc2C2CCCCC2)S1 |  | inconclusive: -30% [inhibitor]
27 | Oc1ccc(/C=C/c2cc(O)cc(O)c2)cc1 | inconclusive: 316 µM [inhibitor, single point] and inconclusive: 11.4 µM [inhibitor, partial curve] and inconclusive: 50.1 µM [inhibitor, partial curve, poor fit] | 
28 | COc1ccc(Cc2nc(P(=O)(OC)OC)c(NCc3cccnc3)o2)cc1 |  | inactive: -4.62%
29 | O=S1(=O)N=C(c2ccccc2)C=C(c2ccccc2)N1 | inconclusive: 39.8 µM [inhibitor, partial curve] | 
30 | Cc1cccc(N=Cc2cc3c(cc2[N+](=O)[O-])OCO3)c1 | inconclusive: 56.2 µM [inhibitor, partial curve] | 
31 | CCOC(=O)N1CCN(C(c2cccnc2)c2ccc3cccnc3c2O)CC1 (configuration not stated) | inconclusive: 14.1 µM [inhibitor, full curve] | 
32 | CCOc1cc(/C=C2\NC(=O)NC2=O)ccc1OCc1ccc(Br)cc1 | inconclusive: 141 µM [inhibitor, single point] | 
33 | C[S+](=O)([O-])N1Cc2ccccc2CC12CN(C(=O)c1ccc(C(F)(F)F)cc1)C2 |  | inactive: 32.5%
34 | CC(=O)Oc1c(-c2ccc(NC(=O)C3CC3)cc2)c(-c2ccccc2F)nn1-c1ccccc1 | inconclusive: 28.2 µM [inhibitor, single point] | 
35 | CCOc1ccccc1NC(=O)c1ccc2c(c1)NC(=O)CS2 |  | inactive: 1.35%
36 | Cc1cccc(-c2c(O)cc(=O)[nH]c2Cl)c1 | inconclusive: 39.8 µM [inhibitor, partial curve, poor fit] | 
37 | Cn1nc(C(=O)NC(Cc2ccccc2)c2ccccc2)c2ccccc2c1=O (configuration not stated) | inconclusive: 70.8 µM [inhibitor, partial curve, poor fit] | 
38 | O=C(O)c1cccc(N2C(=O)/C(=C/c3ccc(SCc4ccc(Cl)cc4)o3)SC2=S)c1 | active: 3.55 µM | 
39 | Cc1ccc(NC(=O)CSc2nc3cc([N+](=O)[O-])ccc3o2)cc1C | active: 39.8 µM | 
40 | Brc1ccc(-c2ccc(/C=N/Nc3nc4ccccc4[nH]3)o2)cc1 |  | inactive: -21.7%
41 | CCc1nc2ccccc2n1CCC(=O)N[C@H]1CCOC[C@H]1C1CCOCC1 |  | inactive: 9.53%
42 | Cc1cc(C)c(NC(=O)C2=Cc3sc4c(c3CS2)CCCC4)c(C)c1 | active: 28.2 µM | 
43 | Fc1ccc(CSc2nnc(-c3c[nH]c4ccccc34)n2C2CC2)c(Cl)c1 |  | inactive: -23.8%
44 | c1coc(CN2CC(Oc3ccc(-c4noc(C5CC5)n4)cc3)C2)c1 | inconclusive: 70.8 µM [inhibitor, single point] | 
45 | C/C(=N/NS(=O)(=O)c1ccc(Br)cc1)c1ccc(NC(=O)c2ccc(C)o2)cc1 | inconclusive: 3.55 µM [inhibitor, full curve, poor fit] | 
46 | Cc1cc(CSc2ccc3c(c2)NC(=O)CO3)no1 | inconclusive: 35.5 µM [inhibitor, partial curve, poor fit] | 

Row | SMILES | Potency | activity change, negative = inhibition
47 | O=C(c1ccc[nH]1)N1CCCC(n2cc(-c3nc(C4CC4)no3)nn2)C1 (configuration not stated) |  | inactive: 13.5%
48 | Cc1cccc2cc(CN(Cc3cccs3)C(=S)NCC3CCCO3)c(=O)[nH]c12 (configuration not stated) |  | inactive: -11.6%
49 | Cc1ccc2nc(-c3ccccn3)cc(C(=O)Nc3ccc4c(c3)OCO4)c2c1 | inconclusive: 100 µM [inhibitor, single point] | 
50 | O=C(CCCc1cccs1)N1CCCC1 |  | inactive: -44.4%
51 | CCOC(=O)C1=C(COCCN)NC(C)=C(C(=O)OC)C1c1ccccc1Cl (configuration not stated) | inconclusive: 50.1 µM [inhibitor, partial curve, poor fit] | 
52 | COc1cccc(/C=C(/C#N)C(=O)c2ccccc2)c1OC(F)F | inconclusive: 31.6 µM [inhibitor, partial curve, poor fit] | 
53 | Cc1ccc2nc(NC(=O)CN(C)S(=O)(=O)c3cccc4nsnc34)sc2c1 | inconclusive: 158 µM [inhibitor, single point] | 
54 | Cc1ccc(OC(C)c2nc(-c3ccc(Br)o3)no2)cc1C (configuration not stated) | inconclusive: 44.7 µM [inhibitor, partial curve, poor fit] | 
55 | CC#CC[N+](C)(C)CCCCCCCCCCCC | inactive | 
56 | COc1cccc(-c2ccc3ncnc(NCc4cccnc4)c3c2)c1 | inconclusive: 6.31 µM [inhibitor, full curve, poor fit] and inconclusive: 5.62 µM [inhibitor, full curve, poor fit] | 
57 | CC1CCC(NC(=O)C2(c3ccccc3)CC2)CC1 (configuration not stated) |  | inactive: -25%
58 | COc1ccc2nc(NS(=O)(=O)c3ccc(Cl)cc3)c(Nc3ccc4c(c3)OCO4)nc2c1 | inconclusive: 35.5 µM [inhibitor, partial curve, poor fit] | 
59 | O=c1oc2cc(OCc3nn[nH]n3)ccc2cc1-c1ccc(F)cc1 |  | inactive: -8.75%
60 | CN(Cc1cnccn1)C(=O)c1cc(CN2CCC(Cc3ccccc3)CC2)on1 | inconclusive: 50.1 µM [inhibitor, partial curve, poor fit] | 
61 | COc1ccccc1CNC(=O)[C@@H]1CCCN1S(=O)(=O)c1ccccc1F |  | inactive: 4.11%
62 | Cc1ccc(NC(=O)CN2c3cccc4cccc(c34)S2(=O)=O)c(S(=O)(=O)N2CCCCC2)c1 |  | inactive: -6.17%
63 | CC1COCCN1Cc1ccccc1C#N (configuration not stated) | inconclusive: 3.16 µM [inhibitor, partial curve, poor fit] | 
64 | COc1cccc(N2C(=O)NC(=NC3CCCC3)C23CCCN(CC2CC2)C3)c1 (configuration not stated) |  | inactive: 5.94% [at 6.33 µM]
65 | COC(=O)c1cccc(-n2[nH]nnc2=S)c1 | inconclusive: 50.1 µM [inhibitor, partial curve, poor fit] | 
66 | CCOC(=O)CSc1nc2c(sc(=S)n2-c2ccccc2)c(=O)n1-c1ccc(OC)cc1OC |  | inactive: -27.5%
67 | CCC(C)[C@H](NC(=O)N1CCCCCC1)C(=O)O (some centres not stated) | inconclusive: 44.7 µM [inhibitor, partial curve, poor fit] | 
